Hit rate of the full screen: of about 320,000 compounds, about 2,100 (0.66%) were called active. The shares of active, inactive and inconclusive entries below differ from those in the screen. The call rests on the fitted dose curve; in most records, active means well fitted inhibition curve with a large enough effect in the signal ratio, with a control signal flat (not every such curve was filed as active); inconclusive means small, poorly fitted or top-dose-only effect, or effect the other way, or a change in a side signal; inactive means flat fitted curve, though single readings scatter; the % refers to the signal ratio. Potencies of inconclusive entries are doubtful fits and often do not repeat.
Assay: qHTS Assay for Lipid Storage Modulators in Drosophila S3 Cells
Settings: BODIPY lipid droplet fluorescence, 18-24 h, cells fed with added oleic acid; lipid storage change, negative = inhibition: at 46.1 µM (top of the series) unless noted
Procedure, shortened: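 Drosophila S3 cells loaded with oleic acid (400 uM, as added) and compounds at several concentrations; lipid droplets imaged by 488-nm laser-scanning cytometry, 500–530 nm intensity and object ratio to cell channel. Percent activity normalized to 20 uM Triacsin C.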
For `CC(=O)c1c(C)[nH]c(C(=O)Nc2ccc(Cl)cc2F)c1C`, the lipid storage change, negative = inhibition was inconclusive: -3.95%.
In the case of `COc1ccccc1NC(=S)NC(NC(C)=O)C(Cl)(Cl)Cl` (stereo not drawn), the lipid storage change, negative = inhibition was inconclusive: 11.1%.
With `O=C(Nc1cccnc1)c1c(O)c2cccc3c2n(c1=O)CC3` the Potency was inconclusive: 20.6 µM [activator, single point].
For `NC1=NC(=O)/C(=C/c2ccc(Br)cc2)S1`, the Potency was inconclusive: 0.82 µM [falling, full curve, poor fit].
For `COC(=O)c1sc(S(=O)(=O)N2CCCCC2)c(C(=O)OC)c1C`, the lipid storage change, negative = inhibition was inconclusive: 5.62%.
With `Cc1ccc(-n2nc3c(=O)n(CCCC(=O)NCc4ccccc4C)nc(C)c3c2C)cc1` the lipid storage change, negative = inhibition was inconclusive: 4.63%.
In the case of `O=C(Cn1nc(-c2ccccc2)ccc1=O)Nc1ccc(-n2cnnn2)cc1`, the Potency was inconclusive: 16.4 µM [falling, partial curve, poor fit].
In the case of `Cc1ccc(C)c(NC(=O)CSc2nnc(CCNC(=O)OC(C)(C)C)o2)c1`, the Potency was inconclusive: 0.103 µM [activator, full curve].
With `O=C(Nc1ccc(Cl)cc1)C1=Cc2ccccc2OC1` the lipid storage change, negative = inhibition was inconclusive: -24.1%.
In the case of `O=C(NCCCN=C1NS(=O)(=O)c2ccccc21)c1ccc(S(=O)(=O)N2CCCCC2)cc1`, the Potency was active: 8.2 µM.
With `CS(=O)(=O)N(CC(=O)N1CCN(Cc2ccccc2)CC1)c1ccccc1F` the Potency was inconclusive: 14.6 µM [falling, partial curve, poor fit].
For `CC(C)C(=O)N1CCC(CN=Cc2c(O)n(C3CCCCC3)c(=O)n(C3CCCCC3)c2=O)CC1`, the lipid storage change, negative = inhibition was inconclusive: 42.3%.
With `Cc1ccc(C(=O)NCCCCNC(=O)c2ccc(C)o2)o1` the lipid storage change, negative = inhibition was inconclusive: -49.2%.
With `Cc1ccc(S(=O)(=O)N2CCOCC2)cc1NC(=O)COc1cccc(Oc2ccccc2)c1` the Potency was inconclusive: 0.92 µM [activator, full curve, poor fit].
In the case of `CC(C)(C)c1ccc(C(=O)NC(=S)NNC(=O)c2cccs2)cc1`, the lipid storage change, negative = inhibition was inconclusive: -78.1%.
With `CCOc1cc(C2NC(=O)NC2=O)ccc1O` (stereo not drawn) the lipid storage change, negative = inhibition was inconclusive: -24.1%.
For `Cc1cc(C(C)(C)C)ccc1OCCN(C)C`, the lipid storage change, negative = inhibition was inconclusive: -5.32%.
With `COc1ccc(NC(=O)c2ccccn2)cc1OC` the lipid storage change, negative = inhibition was inconclusive: 9.66%.
For `C/C(CC(=O)Nc1cccc(Cl)c1Cl)=N\NC(=O)C(=O)NC1CCCCC1`, the Potency was inconclusive: 0.13 µM [falling, partial curve, poor fit].
With `O=C(CCN1C(=O)c2ccccc2S1(=O)=O)N1CCN(c2cccc(Cl)c2)CC1` the lipid storage change, negative = inhibition was “inconclusive”.
With `CC(C)=CC(=O)N1CCC(n2nccc2NC(=O)CCc2ccccc2)CC1` the Potency was inconclusive: 16.4 µM [falling, partial curve, poor fit].
With `N#C/C(=C\c1cc2ccccc2nc1N1CCCCC1)C(N)=O` the lipid storage change, negative = inhibition was inconclusive: 7.48%.
With `NC(=NCc1ccco1)NC(=O)c1ccc(Cl)cc1` the Potency was inconclusive: 29.1 µM [falling, single point].
For `COC(=O)c1ccc(C2/C(=C(/O)c3ccc(Cl)cc3)C(=O)C(=O)N2C2CCS(=O)(=O)C2)cc1` (stereo not drawn), the Potency was inconclusive: 0.82 µM [activator, single point].
With `CCn1c(SCC(=O)Nc2ccc(N3CCOCC3)c(Cl)c2)nnc1-c1ccc(N)cc1` the lipid storage change, negative = inhibition was inconclusive: -1.06%.
For `CCOC(=O)c1c(C)[nH]c(C)c1S(=O)(=O)NCc1cc(C)ccc1C`, the lipid storage change, negative = inhibition was inconclusive: -16.5%.
In the case of `O=c1c2ccccc2c(C=NC2CCN(Cc3ccccc3)CC2)c(O)n1Cc1ccc2c(c1)OCO2`, the Potency was inconclusive: 2.06 µM [activator, partial curve, poor fit].
In the case of `CCOC(=O)N1CCN(C(=O)c2cc3c(-c4ccc(Cl)cc4)nn(C)c3s2)CC1`, the lipid storage change, negative = inhibition was inconclusive: 54.3% [activator].
With `COc1ccccc1CNC(=O)COC(=O)c1ccc(Cl)c(N)c1` the lipid storage change, negative = inhibition was inconclusive: 14.4%.
With `O=c1c(C(c2ccc(Cl)cc2)c2c(O)nc3n(c2=O)CCS3)c(O)nc2n1CCS2` the lipid storage change, negative = inhibition was inconclusive: 14.8%.
For `COc1ccc(CCNC(=O)C2CCCN(S(=O)(=O)c3ccc(F)cc3)C2)cc1OC` (stereo not drawn), the Potency was inconclusive: 0.164 µM [activator, full curve, poor fit].
For `COc1ccc(CCNC(=O)c2ccc3c(=O)n(Cc4ccco4)c(=S)[nH]c3c2)cc1OC`, the Potency was inconclusive: 6.51 µM [rising, single point].
For `Fc1cnc(N2CCOCC2)nc1N1CCc2ccccc21`, the “lipid storage change, negative = inhibition” value was inactive: 1.02%.
With `CC(C)(C)C(=O)N1CCN(S(=O)(=O)c2ccc3c(c2)OCCCO3)CC1` the lipid storage change, negative = inhibition was inconclusive: 19.8%.
For `Cc1ccc(NC(=O)c2ccccc2NS(=O)(=O)c2ccc(Cl)s2)cc1S(=O)(=O)N1CCOCC1`, the “lipid storage change, negative = inhibition” value was inactive: 9.85%.
With `CCCCCc1c(O)c2ccccc2[nH]c1=O` the Potency was inconclusive: 29.1 µM [cytotoxic, partial curve].
In the case of `O=C(/C=C/c1ccc(OC2CSC2)cc1)c1ccc(Cl)cc1`, the lipid storage change, negative = inhibition was inconclusive: 18%.
In the case of `CC(OC(=O)c1c2c(nc3ccccc13)/C(=C\c1ccc3c(c1)OCO3)CCC2)C(=O)Nc1ccc(S(N)(=O)=O)cc1` (stereo not drawn), the lipid storage change, negative = inhibition was inconclusive: 38.7% [activator].
In the case of `CCCc1nc(SC2CCCC2)c2c(=O)n(C)c(=O)n(C)c2n1`, the Potency was inconclusive: 0.82 µM [activator, partial curve].
With `COc1ccc(-c2ccc3ccccc3n2)cc1OC` the lipid storage change, negative = inhibition was inconclusive: 9.32%.
In the case of `O=C(c1cccc(N2CCCC2=O)c1)N1CCN(c2cccc(Cl)c2)CC1`, the Potency was inconclusive: 14.6 µM [activator, partial curve].
With `O=C(CCS(=O)(=O)Cc1ccccc1)Nc1ccc2c(c1)OCCO2` the Potency was inconclusive: 29.1 µM [cytotoxic, single point].
For `Cc1ccc(C(=O)N/C(=C/c2ccc(F)cc2)C(=O)NCc2ccncc2)cc1`, the lipid storage change, negative = inhibition was inconclusive: 19.2%.
With `O=C(Nc1ccc(S(=O)(=O)N2CCOCC2)cc1)c1ccc(F)cc1` the Potency was inconclusive: 23.1 µM [falling, single point].
In the case of `COc1ccc(C(=O)Nc2ccc(N3CCN(C)CC3)cc2)cc1[N+](=O)[O-]`, the lipid storage change, negative = inhibition was inconclusive: 33.7%.
In the case of `Cc1ccc(SCCNC(=O)/C=C/c2ccc([N+](=O)[O-])cc2)cc1`, the Potency was inconclusive: 2.91 µM [falling, full curve].
With `O=C(/C=C/c1ccc(Br)o1)NCCCN1CCOCC1` the lipid storage change, negative = inhibition was inconclusive: 15.6%.
For `C#CCC(NC(=O)c1ccc(C#N)cc1)C(=O)NCCC` (stereo not drawn), the Potency was inconclusive: 1.16 µM [falling, single point].
For `Cc1cccc(NC(=O)C2CCCN(S(=O)(=O)c3ccc4[nH]c(=O)ccc4c3)C2)c1` (stereo not drawn), the lipid storage change, negative = inhibition was inconclusive: 8.34%.
With `O=c1[nH]c2ccc(NCc3ccc(OCc4ccccc4Cl)cc3)cc2[nH]1` the Potency was inconclusive: 0.116 µM [rising, full curve, poor fit].
In the case of `COC(=O)c1c(NC(=O)CN(c2ccccc2)S(C)(=O)=O)sc2c1CCCC2`, the Potency was inconclusive: 3.66 µM [activator, full curve].
With `CC(C)CN(C(=O)COC(=O)CSc1ccc(Br)cc1)C1CCS(=O)(=O)C1` (stereo not drawn) the lipid storage change, negative = inhibition was “inconclusive”.
For `O=C1CC(c2cc3c(cc2Br)OCO3)C2=C(CCCC2=O)N1` (stereo not drawn), the lipid storage change, negative = inhibition was inconclusive: 9.59%.
In the case of `COc1cc(/C=C/C2=CC(C)(C)NC(=S)N2)cc(OC)c1OC`, the lipid storage change, negative = inhibition was inconclusive: -63%.
In the case of `CCCNC(=O)c1onc(CS(=O)(=O)c2cccc(OC)c2)c1C(=O)NCCC`, the lipid storage change, negative = inhibition was inconclusive: 3.91%.
For `COc1ccccc1N1CCN(C(=O)c2ccc(C(C)(C)C)cc2)CC1`, the lipid storage change, negative = inhibition was inconclusive: -7.38%.
For `CCN(CC)c1nc(C(N)=O)cc(-c2ccccc2)n1`, the lipid storage change, negative = inhibition was inconclusive: -104%.
With `O=C(CN1C(=O)COc2ccc(S(=O)(=O)N3CCCC3)cc21)Nc1cccc(F)c1` the Potency was inconclusive: 6.51 µM [activator, single point].
With `CCC(=O)Nc1nc(C)c(-c2csc(Nc3cccc(C(=O)O)c3)n2)s1` the “lipid storage change, negative = inhibition” value was inactive: -13.5%.
In the case of `Cc1cc(C)c2oc(C(=O)Nc3ccc(S(=O)(=O)N4CCC(C)CC4)cc3)cc(=O)c2c1`, the lipid storage change, negative = inhibition was inconclusive: 9.06%.
For `CCOC(CCn1c(SCC(=O)Nc2cc(C)on2)nc2ccccc2c1=O)OCC`, the lipid storage change, negative = inhibition was inconclusive: 42%.
In the case of `CCN1C(=O)[C@H]2[C@@H](c3ccc(C)cc3)N3C(=O)N(c4cccc(Br)c4)C(=O)[C@@]3(CC(C)C)[C@H]2C1=O`, the lipid storage change, negative = inhibition was inconclusive: 31.7%.
With `O=C1NC(=S)N/C1=C/c1ccc(Oc2ccc(C(F)(F)F)cc2[N+](=O)[O-])c(Cl)c1` the “lipid storage change, negative = inhibition” value was inactive: -0.498%.
With `Cn1ccc(C(=O)Oc2ccc(C(=O)Nc3ccc(F)cc3F)cc2)n1` the lipid storage change, negative = inhibition was inconclusive: 12.6%.
In the case of `CCn1cc2nc(SCC(=O)Nc3ccc(F)cc3F)n(Cc3ccccc3)c(=O)c2n1`, the Potency was inconclusive: 0.58 µM [activator, single point].
With `CCCC(=O)N(Cc1cc(=O)[nH]c2ccccc12)c1ccc(C)cc1C` the lipid storage change, negative = inhibition was inconclusive: 2.7%.
For `CCOC(=O)c1cccc(C2=CC(=O)CC(C)(C)C2)c1`, the lipid storage change, negative = inhibition was inconclusive: -80.4%.
In the case of `CCn1c(=O)cc(SCC(=O)NCCC2=CCCCC2)c2ccccc21`, the lipid storage change, negative = inhibition was inconclusive: 29.6%.
With `Cc1sc2ncnc(N3CCN(Cc4ccccc4)CC3)c2c1-c1ccccc1` the lipid storage change, negative = inhibition was inconclusive: 128%.
With `Cc1ccc2nc(N3CCN(C(=O)c4ccco4)CC3)sc2c1` the lipid storage change, negative = inhibition was inconclusive: 30.1% [activator] [at 0.0737 µM].
With `CCN(Cc1ccccc1)S(=O)(=O)c1csc(C(N)=O)c1` the lipid storage change, negative = inhibition was inconclusive: -59.9%.
For `COCCn1c(N)c(N(Cc2ccccc2)C(=O)Cc2c(Cl)cccc2Cl)c(=O)[nH]c1=O`, the lipid storage change, negative = inhibition was inconclusive: 43.4%.
With `CCCCCN(C(=O)CCC(=O)OC(C)C(=O)NCc1ccccc1)c1c(N)n(CCCC)c(=O)[nH]c1=O` (stereo not drawn) the lipid storage change, negative = inhibition was inactive: 4.2% [at 0.0737 µM].

From PubChem BioAssay AID2685 (National Center for Advancing Translational Sciences (NCATS), 2010)
On the % scale 0 is the no-effect control and ±100 the full control effect; potency means the concentration at half of the fitted maximal effect.
